# Source: PubChem BioAssay AID1508600 (Functional Genomics Laboratory (NCATS/FGL), 2020)
# Out of some 53,000 sequences screened, about 3,700 (7%) were called active.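 How the source made its calls: active means gene knockdowns whose robust z-score for IL-1 alpha signal is at least 2 or at most -2, so actives lie on both sides; inactive means the rest.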 The list shows a part of the results.
# Assay: Components of the Cytosolic LPS Sensing Pathway: Gene Identification via Genome-wide siRNA Screen;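 further: robust z of the log signal after scaling to non-targeting control siRNA wells of the plate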
# Details: RAW264.7 macrophages, IL-1a HTRF, actives lie on both sides, screened at 100 nM (by protocol), cells primed 5 h with Pam3CSK4 first
# Method in brief: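 Cells (RAW264.7, 1×10^4 per well) were transfected with siRNA at 100 nM and cultured 48h at 37 degrees C. Pam3CSK4 was added for 5 hours; LipidA transfection followed for 24 hour. IL-1a was then measured by HTRF.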
row,Sequence,z-score
1,GGUUGGUACAUUGUGACCUTT against Rer1,inactive: -1
2,GGGAUUGGUGAAGAAAAAATT against Chmp1a,inactive: -1.07
3,GGAGAUGCCAGAGGUCAAATT against Gzmk,active: 2.08
4,GGCUUAUUCCCUAAUUAAATT against Elobl,inactive: -0.521
5,GGAGGACUGUCCAAAAGAATT against Tnfrsf18,inactive: 1.04
6,CCACUAGUUAGGUACUAACTT against Ifitm6,inactive: 1.02
7,CGAUGAUAAAACGAACAAGTT against Plppr5,active: 2.78
8,GAAAUGCAACGGCCACUGCTT against Spp1,inactive: -1.38
9,GGAUUUCAACCUUCUUGUUTT against 2310057N15Rik,inactive: -0.448
10,GGUAUGAGCUGAUCAAGUATT against Slc27a2,inactive: 1.67
11,GAGGUUCAGUUUUGGCUGGTT against Olfr558,inactive: 0.417
12,GCUAAAAACAGCUAAAGAATT against Adam4,inactive: -0.116
13,GGAAGGAAGAUGAAAGCCATT against Hspb3,inactive: 0.434
14,GGGUGGAGUAAAGCUCUAUTT against Olfr1223,inactive: -0.417
15,GGGAACUGCACAAUACAAATT against Ccdc122,inactive: 1.91
16,CGCAGACAAGAAAUGAAGGTT against Hnf4aos,inactive: -1.98
17,GCUAAUCAAGACCGAGCAUTT against Vps33b,inactive: 0.306
18,GGAUGUCCAGAUGUAAAUATT against Vps16,inactive: -0.974
19,GGCAGUUCAAGGCAAUAAATT against Olfm1,inactive: -1.4
20,GCCGCUUGAAGACCAGAAATT against Trp53i11,inactive: 1.03
21,GGUCUAUGGCCCAUAUGAATT against Cspg4,inactive: -1.31
22,GCUUAGAAAUCUUAUCCCATT against Hnrnpc,inactive: -1.19

row,Sequence,z-score
1,GCAUAGCAGGAAGGCCUUGTT against Htr6,inactive: 0.183
2,GCUACCAGGAUAGCGAAACTT against P2rx2,inactive: 0.826
3,GGAAAAAUUUAGACAGCACTT against Csrp2,inactive: 0.132
4,GCUUAUAAAGUAGUGGUUUTT against Wnt2b,inactive: -0.384
5,GGGUUCCAAUGAAGAUCUCTT against Nr1i2,inactive: 1.17
6,GGCUUCAAGAUGUUCGGCUTT against Plekhg5,inactive: 1.86
7,GGCAGUCUAGCUGAAUCAATT against Tnfsf14,inactive: 0.227
8,GGAAGAAGAAACUCAAGAGTT against Rnf167,inactive: 1.11
9,GCAUUAUGAACCGAAAUGUTT against Olfr1265,inactive: 0.391
10,GGUCAGAUGUAGAAACAGCTT against Dlgap2,inactive: -0.632
11,CCUGUACUACUGAUUAUUATT against Sinhcaf,inactive: 0.16
12,GGGUAUUUAUCUGAAGCCCTT against Tsc22d4,inactive: -0.317
13,GGGUUAGCCAUAGAAGAAGTT against Auh,inactive: -0.461
14,GGUCAUUCCUGAGUGCAGGTT against Olfr545,inactive: 0.378
15,GGCCAUCUUGACACACAUGTT against Wnt4,inactive: -1.02
16,GCACAUUCAGAUGAGGACUTT against Rnf6,inactive: -1.05
17,CGACCUAAUGAAGAAUGUCTT against Hmgcr,inactive: -0.448
18,GGAGACUCAUCCAAUAAAUTT against Vmn2r26,inactive: -1.08
19,GGUAUUUUUCAAGAUUACGTT against Cdkn1b,inactive: 1.41
20,GGCUAAGCAACUCUUUCGATT against Sec22b,inactive: 0.298
21,GGGCCUUCAACUUAACUUUTT against Mindy1,inactive: -1.38
22,GGAGAAAUGCUGAUGUCAATT against Ankrd22,inactive: -0.939

row,Sequence,z-score
1,GGCAUGAGGAUACUGAAGGTT against Klra19,inactive: -1.25
2,GCCAUGUACGCAAAAUAGUTT against Lsm12,inactive: -1.44
3,CCCAAAGUGCUUUACAAUGTT against Aard,active: 2.1
4,GCACUCUCAUUCCUAUUGGTT against Slc10a4,inactive: -0.0846
5,GGAGCUAUCACUUUUCAUUTT against G0s2,inactive: 0.778
6,GCUUCUGAUAUAGUCAGCCTT against Ptpro,inactive: 0.28
7,GCGAAUUGAGCUCAAACAUTT against Spty2d1,inactive: -0.519
8,GGUGCUAGUGUAUGAAUUATT against Nsun5,active: 2.39
9,CCAACUUGUAAUCAAAGGATT against Eif2s2,inactive: -0.335
10,GGGCUGACCAGUUUGAGUATT against Polr2h,active: -2.7
11,GGCAGCCUAUAUAUACUCATT against Lpcat2b,inactive: 0.254
12,GGACUUUGAACUACCGAAGTT against Usp54,inactive: -0.0479
13,GGUAGCAAAUUUCAAUCUUTT against Hipk1,inactive: 0.602
14,GCAGGAACGUGAGGACCAUTT against Snip1,inactive: 0.842
15,GGCACCUGUUAAAAAUGAATT against Prag1,inactive: -0.771
16,GGAAAGGAACAUAUUUGACTT against Gss,inactive: 0.0774
17,GGUCAUUCAAUACCAGAUATT against Cd48,inactive: 0.417
18,CCGCAUACCUCUAAGGUAGTT against Cwc25,inactive: -0.681
19,GCACUUUGAGAACACUAAUTT against Zfp9,inactive: -1.58
20,GGAACGUGCAAUGCUUGUUTT against Adm,inactive: 0.241
21,GGAAAUGUCAUGCUUUCAGTT against Vmn1r13,inactive: 0.126
22,CCUUACCCUGUGUAUCUUUTT against Naa80,inactive: -0.0307

row,Sequence,z-score
1,GGCUGCACCAGAAACAUUATT against Vezf1,inactive: -0.706
2,GGGUACUUCUCAGGAAUAGTT against Nudt5,inactive: 0.981
3,CCUAAUCGAGAAUGAGUUATT against Speer2,inactive: -1.02
4,GCGAAUUGAACAGUUCUCATT against Cwf19l2,inactive: 0.0299
5,CCUAGUGUGUGCUUUUCGGTT against Akr7a5,inactive: -0.502
6,CCUCAUAGGCUUGACAAUUTT against Exoc2,inactive: -0.0626
7,GCCAUUCAAAAAUCAGCCGTT against Ddi2,active: -2.02
8,GGGAGGGAUUUAUGUCCUCTT against Slc6a2,inactive: 0.333
9,GCUAUGUAUCUUUUGAGAUTT against Chst3,inactive: -0.0508
10,CGAAUUCUCUUGGAACAAUTT against Cntn3,inactive: -1.19
11,GGGAAGAAAGACUCAAACUTT against Dcdc2a,inactive: 0.919
12,GGGACUCAAAAUCAAGAGATT against Mrps28,inactive: 0.206
13,CCUUAAACGACGAGAAGCATT against Hp,inactive: -1.47
14,GCUUCUUUUUGCUGAUGACTT against Vmn1r42,inactive: -0.53
15,GGACAUGAAGAAAAGCACCTT against Bin3,inactive: -0.376
16,GGCAUCAUCCAAAAUUCCCTT against Amd1,inactive: -1.89
17,GGCAUCAUCUCAGUCAUGUTT against Micos13,inactive: 0.465
18,GGACCUUGGGCAGAUUCAATT against Atp10d,inactive: 0.54
19,GCUAGGAUGUCUGAAAGAGTT against Ccdc178,inactive: 0.266
20,GGCGGACAGAAAUUAUAGATT against Tnpo3,active: 3.19
21,GCGAAUCCACUUAAUUCGATT against Abhd4,inactive: 1.35
22,GGAACAGGAAAAAUGAACUTT against Cetn2,inactive: -1.07

row,Sequence,z-score
1,GGAAUUGGUAGACCACACCTT against Smr3a,inactive: 0.121
2,CCAUCUAUCAAAAGCAAAUTT against Reg1,inactive: -0.314
3,CGAUGCUUACGACAUUGUUTT against Dusp6,inactive: -0.174
4,CGAGAUUUCUAUUUCAGCATT against Mapre3,inactive: 0.222
5,GGUCAGCCAGACCAUUUCUTT against Edc3,inactive: -1.27
6,GGCUCUCUUGCUGUGGGUATT against Dll4,inactive: 1.95
7,GGGCAUUAAGUACAAAAAGTT against Ap1m2,inactive: 0.261
8,GGUCUAUGGAGACAUUAAATT against Ptprt,inactive: 0.294
9,CGAUUCCGUCAAAUUAAAGTT against Catsper2,inactive: 0.156
10,GGAGAAGUUCCCUAACAUGTT against Ppan,inactive: -1
11,CCACUCAUGAAGACGGAAGTT against Abat,inactive: -0.0609
12,GGCAAAGCUCUAAACGGGUTT against Cnih2,inactive: 1.21
13,GGAAAACUUUAGCUACAAATT against Ppp4r4,inactive: -0.231
14,GGUCACGGAGAAACUAAAGTT against Ppme1,inactive: 0.703
15,GGCACACACCAUAUGGUAATT against Ldb1,inactive: -0.176
16,GGAUAGCUUGAUCAAUCUUTT against Cisd2,inactive: -0.13
17,GGGACUCCUUUAAAUUUCUTT against Pipox,inactive: -0.458
18,GGAAGAAGCAGGUGAUUAATT against Grb14,inactive: -1.24
19,GGAUCUUCUACUAUUGAUATT against Paqr5,inactive: 0.439
